Results are given in words; binding and its absence hold for the method and conditions named. Binding seen in cells or lysates may run through a third protein. Some results given as binding are weak or reduced against the parent protein; the word gives no strength. Tags and fused reporters may be left off the sequences shown.
Tests used:
Test in all cases: co-IP
HIG2-FLAG WT (human) = target: T1, HIG2-FLAG WT (human) (UniProt Q9Y5L2)
T1 sequence: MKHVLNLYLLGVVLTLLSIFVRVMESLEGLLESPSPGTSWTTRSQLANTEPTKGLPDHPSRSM

HIG2-FLAG Δ7-11 (human) = target: T2, HIG2-FLAG Δ7-11 (human) (UniProt Q9Y5L2)
T2 sequence: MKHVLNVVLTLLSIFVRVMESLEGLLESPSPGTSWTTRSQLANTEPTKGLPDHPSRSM

[1] = target: T3, Myc-ATGLΔPT (not stated (human or mouse cDNA cloned)) (UniProt Q8BJ56)
T3 sequence: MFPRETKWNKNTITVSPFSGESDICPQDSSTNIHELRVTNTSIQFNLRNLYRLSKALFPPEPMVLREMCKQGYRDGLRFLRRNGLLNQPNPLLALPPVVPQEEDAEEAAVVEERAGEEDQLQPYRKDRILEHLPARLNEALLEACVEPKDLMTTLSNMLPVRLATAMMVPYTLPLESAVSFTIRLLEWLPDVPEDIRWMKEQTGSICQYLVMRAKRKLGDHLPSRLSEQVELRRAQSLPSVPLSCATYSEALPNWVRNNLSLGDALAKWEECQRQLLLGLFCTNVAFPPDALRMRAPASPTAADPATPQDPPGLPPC

[2] = target: T4, Myc-ATGLΔHD (not stated (human or mouse cDNA cloned)) (UniProt Q8BJ56)
T4 sequence: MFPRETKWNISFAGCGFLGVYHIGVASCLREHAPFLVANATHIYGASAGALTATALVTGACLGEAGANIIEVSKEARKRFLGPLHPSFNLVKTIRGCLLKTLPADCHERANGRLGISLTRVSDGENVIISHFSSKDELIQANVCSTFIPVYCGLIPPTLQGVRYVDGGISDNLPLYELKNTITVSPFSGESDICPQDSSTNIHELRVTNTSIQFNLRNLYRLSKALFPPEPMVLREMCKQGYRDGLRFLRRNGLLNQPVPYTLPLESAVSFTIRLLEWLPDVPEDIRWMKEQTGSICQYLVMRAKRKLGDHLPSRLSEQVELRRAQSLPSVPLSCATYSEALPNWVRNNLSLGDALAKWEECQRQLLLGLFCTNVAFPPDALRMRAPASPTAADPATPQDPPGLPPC

[3] = target: T5, Myc-ATGL (adipose triglyceride lipase), wild type (not stated (human or mouse cDNA cloned)) (UniProt Q8BJ56)
T5 sequence: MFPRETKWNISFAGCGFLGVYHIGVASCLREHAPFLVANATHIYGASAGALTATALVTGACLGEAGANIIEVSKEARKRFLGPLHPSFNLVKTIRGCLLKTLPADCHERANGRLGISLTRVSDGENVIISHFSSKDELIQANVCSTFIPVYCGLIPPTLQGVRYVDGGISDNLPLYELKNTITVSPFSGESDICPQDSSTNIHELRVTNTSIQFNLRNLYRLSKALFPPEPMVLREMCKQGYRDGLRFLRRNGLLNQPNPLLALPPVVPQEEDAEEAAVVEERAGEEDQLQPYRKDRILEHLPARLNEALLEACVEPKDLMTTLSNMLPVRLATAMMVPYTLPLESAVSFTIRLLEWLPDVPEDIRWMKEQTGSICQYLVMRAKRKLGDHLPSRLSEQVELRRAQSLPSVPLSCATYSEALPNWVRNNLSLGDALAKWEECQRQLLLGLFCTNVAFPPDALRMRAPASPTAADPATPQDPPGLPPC

B1: Myc-ATGL (adipose triglyceride lipase), wild type (enzyme, UniProt Q8BJ56 1-486)
chain: MFPRETKWNISFAGCGFLGVYHIGVASCLREHAPFLVANATHIYGASAGALTATALVTGACLGEAGANIIEVSKEARKRFLGPLHPSFNLVKTIRGCLLKTLPADCHERANGRLGISLTRVSDGENVIISHFSSKDELIQANVCSTFIPVYCGLIPPTLQGVRYVDGGISDNLPLYELKNTITVSPFSGESDICPQDSSTNIHELRVTNTSIQFNLRNLYRLSKALFPPEPMVLREMCKQGYRDGLRFLRRNGLLNQPNPLLALPPVVPQEEDAEEAAVVEERAGEEDQLQPYRKDRILEHLPARLNEALLEACVEPKDLMTTLSNMLPVRLATAMMVPYTLPLESAVSFTIRLLEWLPDVPEDIRWMKEQTGSICQYLVMRAKRKLGDHLPSRLSEQVELRRAQSLPSVPLSCATYSEALPNWVRNNLSLGDALAKWEECQRQLLLGLFCTNVAFPPDALRMRAPASPTAADPATPQDPPGLPPC
For B1, the binding (HIG2-FLAG WT (human)) was “binds” and the binding (HIG2-FLAG Δ7-11 (human)) was “no binding”.

B2: HIG2-FLAG WT (protein, UniProt Q9Y5L2 1-63)
chain: MKHVLNLYLLGVVLTLLSIFVRVMESLEGLLESPSPGTSWTTRSQLANTEPTKGLPDHPSRSM
B2 was tested, and the binding [1] was “no binding”, the binding [2] was “binds” and the binding [3] was “binds”.
